Screen size: about 52,000 sequences; about 210 (0.4%) were called active.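 The calls were made as follows: active = gene whose silencing raises cell survival under the drug, median off-target-corrected z-score across its silencing RNAs 2 or more; inactive = the rest.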 The list shows a part of the results.

A short description of the experiment: Resistance to Poly (ADP-Ribose) Polymerase inhibitor: Gene Identification via Genome-wide siRNA Screen. The following applies: mouse BRCA2 R2336H ES cells, olaparib, CellTiter-Glo viability; active compounds read high. The method in brief:
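Mouse BRCA2 R2336H ES cells were reverse-transfected with siRNA (20 nM final), treated at 48 h with 500 nM olaparib, and read by CellTiter-Glo after 72 h. Scores: MAD-based z per siRNA, median per gene, seed off-target correction.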
Background: ATP-based viability assays read luminescence as a measure of living cells.
On to GCUGUCCACUGCUUAAAUCTT against Isyna1, for which the z-score was inactive: 0.392.

For GCCAAUCAAAUCAACCAUATT against Ddx26, the z-score was inactive: 1.1. In the case of CGUACUCUUUCUUUAAUCCTT against Umod, the z-score was inactive: -0.057. On to GCGGACAUGAGUUUGAAUGTT against Bnipl, for which the z-score was inactive: 0.816. Next, “CGACCUGUGGGUUAACCCATT against DXBwg1396e”: inactive: 0.18; GGAUGAGAUGGGAAUUGUATT against Otor: inactive: -1.1; GGGAGAACACAAACAGAAATT against Dab1: inactive: 3.81. Regarding “CCAAAACUUCCUGUGGUUCTT against 4930538D17Rik”, the z-score is inactive: -0.932.

Regarding CCUGCUUCGAAAGAUCUCCTT against Serpina10, the z-score is inactive: 0.167. For the sequence “GGCUCUGAAAGAGCUAAAATT against 2810002D13Rik”, the z-score was inactive: 1.21. Take AUGAAAACCAUUCCCAAUUTT against Olfr435: the z-score was inactive: 3.18. In the case of CGGCCACUAUAUGACAUUATT against Upk3b, the z-score is inactive: -0.0137. As to GGCAUUCAGAAAUCCAGUATT against Zdhhc2, the z-score is inactive: -0.452. Turning to GGAUAGCAACCAGUUUCAUTT against Mvd, the z-score was inactive: 0.127. Turning to GCUCUGUCUUAAGAGACUATT against Smo, the z-score is inactive: 0.338.

Take CCUAAGUUAUUGUUAACUGTT against Gata2: the z-score was inactive: 0.507.

Consider “GCUACGUUAAAAGCAAUAATT against A230078I01Rik”, for which the z-score is inactive: -0.101. Regarding GCAUAGUCAAGGUCAGAUCTT against AI790205, the z-score is inactive: 0.656. GGUUGUCCGGAUUGCUUGUTT against Olfr734: the z-score was inactive: -3.02. Regarding GGAGAUUAACCCACAAACUTT against Rps6ka3, the z-score is inactive: 1.68. For CGAAGUCUAGCAGAACUCUTT against Kcne1l, the z-score is inactive: -0.928. In the case of GCAUCAACUCCUGAGCUCUTT against Stra13, the z-score was inactive: -1.64. As for CCAAGUGGAUCCCGCUUGUTT against Rhot2, the z-score was inactive: 0.871. Next, “GGUGUAUUGAGCUAAACAUTT against B830028P19Rik”: inactive: 1.07; CCCAUUCUGUAUAUAGUGCTT against Adam6: inactive: 0.77; GGGCUCUGAAUUGAAGAAATT against Ralgps2: inactive: -1.58. Turning to GGUCACCAAGCAACACAAUTT against Fen1, the z-score is inactive: 0.939. Take GGAGAAACCUAAAGACAUATT against Mocs2: the z-score is inactive: -1.29. As for GGGAUCUUUCCAGAGUUUGTT against Prp15, the z-score is inactive: 1.45. As for “GGAAAGCUAAGGCUGUACUTT against 1700010H15Rik”, the z-score was inactive: -1.59. Regarding CCUUGUCUGGCAACAUCGATT against Cpt1c, the z-score was inactive: 0.33. As for GGAGCACAGUUUUGGUGCUTT against Olfr576, the z-score was inactive: 4.43. On to GGUGGAUCCAGACCAAGUCTT against Cecr5, for which the z-score is inactive: -1.89. Regarding GGGUCCAUUCUGAGAACAATT against Pftk1, the z-score was inactive: -1.32. Then GGAGAACAAGUUGUCUGUCTT against Olfr118, with inactive: -2.68; and “GGAAGAAGCAGCAAGAAGATT against 9130422G05Rik”, with inactive: 0.938; and GCUAAGUUGCUUUUCAGUGTT against Hist1h4i, with inactive: -0.0874. Regarding CGUAUAACUAAUGAUGCCATT against Snap23, the z-score is inactive: 0.621. With GGUUCUACUCUAUCAAGGATT against Cias1, the z-score is inactive: 1.03. With GCGAUCUAGUUUCAUUAAATT against Prp19, the z-score was inactive: -1.52. Regarding UGUCUGGAAACCAACAAGGTT against Prb1, the z-score was inactive: -1.8. With “GCAUCUACCUAUAAUGAAUTT against 1700020O03Rik”, the z-score is inactive: 1.39. Turning to CCUCAUCCAACAUACCUAUTT against Olfr665, the z-score is inactive: 2.27. Turning to GGAAGGAGAACAUUCCUUUTT against Ces3, the z-score was inactive: -0.132.

Turning to CGGUGAUAACUUCAAGACGTT against Rbp2, the z-score was inactive: 0.434.

Consider GGAUUCACUAGCAUUGUAGTT against Guca1b, for which the z-score was inactive: -2.13. For the sequence “GCCAGUUCACCUGAUCUUATT against 2610507B11Rik”, the z-score is inactive: -0.193. On to GGUUAAAAGAGGAGAUGUUTT against Ttc1, for which the z-score is inactive: -2.69.

Take “GGGCCUAGUAACUAUCAAGTT against 9930016F01Rik”: the z-score is inactive: 0.368.

With GGCUUUUCAAUAUAGUUCCTT against Reg3a, the z-score was inactive: -0.737.

Regarding “GGGUGAAAAUUCUUACUUGTT against 4930584N22Rik”, the z-score was inactive: -0.138. For GCCUAUAAGCCUAAUGAAATT against Rnf133, the z-score was inactive: 1.95.

As to GCACCUGAUUAAGUUGCAUTT against Pcqap, the z-score was inactive: -0.728.

GGGACCAUUCUGAAGAUGATT against Bach: the z-score is inactive: -0.44. Then GGAAUCCUCUGAAUAACCUTT against V1rd9, with inactive: 1.32; and GGACAGAAUACGUGAGGAGTT against 5-Sep, with inactive: -0.852; and GGAACAAGGAAGUUAAGGATT against Olfr1044, with inactive: 0.589. In the case of CCUCAAAGAUUAAUUCCGGTT against Centb2, the z-score was inactive: 0.721. Next, “GGGAAUGUGGCUUCACUUUTT against 2210409E12Rik”: inactive: -0.857; GGAGAUUGUCAACAAAUGATT against Slc25a16: inactive: 1.61. On to GCUACUCCUUAGAACACGGTT against Spry1, for which the z-score is inactive: -0.802. Take GGAUGUUCUUGCUCAUGUGTT against AA536717: the z-score was inactive: -0.0812. Turning to GGCAAGAGUGCCUCUGAAATT against Ccnb1, the z-score was inactive: -2.46. As to GCAUUAUAAAAAGGUUCCGTT against Atp2b1, the z-score was inactive: 0.106.

Take GCUGGGACAGAAAGAACAATT against Ndufa4: the z-score is inactive: -0.979. As for CCACGAUAUUCCAGGUCUGTT against AF067063, the z-score is inactive: 0.766. As for CGACUGUUACGUUGUUUGGTT against Srp9, the z-score was inactive: 0.476. Then GCAAAAGGUGCUCAUUUAATT against Phf14, with inactive: -0.24. With GGAAGAAAGAAUUGAACUUTT against Add3, the z-score is inactive: 0.511.

In the case of “ACCCUUCCCUAUUCGUACATT against 1700016K19Rik”, the z-score was inactive: 0.509.

“GCUUUUGUAGUGACCAGCATT against A730045E13Rik”: the z-score was inactive: 0.437. In the case of “GGUCUCAAUCAGAGUUACATT against D430030K24Rik”, the z-score was active: 1.08. Then GGCAGUAUGAGAGGUAUUUTT against Entpd7, with inactive: -1.74. Next, GAGAGCAGAGCUUGAGACATT against Angptl6: inactive: 1.49; “GUGUACGAGCCUACCGUUATT against 2310016M24Rik”: inactive: 0.0609. Turning to CCCAAUACCAAGUUAUUCCTT against Ms4a8a, the z-score is inactive: 1.63. In the case of “GCGACAACUUAAAGACCGGTT against 2210404G23Rik”, the z-score was inactive: 1.65.

Regarding CGCAUGAUAACUAGAGAAUTT against Slitrk3, the z-score is inactive: -0.274.

Take “GGACAUCAGUGUGUACAUUTT against 1700010I14Rik”: the z-score was inactive: -0.182. On to “GCGAAAUGGACAGAUGUGATT against 2610001J05Rik”, for which the z-score is inactive: -0.325. Regarding GCUAUCCCUUUAUGUAACATT against Prlpn, the z-score is inactive: -0.268. With CGUGGUCAAUAAUGUAAUATT against Stard4, the z-score is inactive: 0.781. GGUUUGCUUUCAUGACUAUTT against Cyp3a41: the z-score is inactive: -0.483. Next, CCCAAACCUGACCUAUGCATT against Pgm5: inactive: 0.272; “GGAAAUCUUCAUGAUCAGUTT against 1700007K09Rik”: inactive: 0.128.

GGGACCUCAAAGUUGUCUATT against Ap1s1: the z-score was inactive: -1.22. Consider GGACCAUACUGUUUGAUUATT against Msl31, for which the z-score is inactive: -0.0378. As to “GGAUGUCUGGAAUGAAACATT against 9130214H05Rik”, the z-score was inactive: -3.04. For GGAGAUUUUCAUGUUAUCATT against Eral1, the z-score was inactive: 1.09. Then GGUUCUUGAGCCUAAACAATT against Cd22, with inactive: 1.27; and “GGUCCCAGCUGUUAUAAGUTT against B130055A05Rik”, with inactive: -0.00533; and GGAGAAUGAAGAGUUAGACTT against Hirip5, with inactive: -0.573. Regarding GGUUGUGUUCAAGAAAGGGTT against Gcgr, the z-score is inactive: -0.451.

In the case of GGAAUUUUACCUUUUGGAUTT against Smbp, the z-score is inactive: 0.645. As to GGUGAGCUUGGUUUCUAAATT against Gdf15, the z-score is inactive: 1.48. Next, CCGGAAAUUUUCUUUGCCCTT against Sec23ip: inactive: 0.0367; GGAGCUCUAAAAUUGACUUTT against Zfp92: inactive: 0.916.

As to GGCAGGAUCACAGUCCUAGTT against Pcp4, the z-score was inactive: 0.415. Next, CGUGCAGUGUGCUUCACAATT against Smarcad1: inactive: -0.181; CGACAUUGCCUGGAACUUUTT against Gpx1: inactive: 0.288.

Consider GGCCAUUGUGAAAUCCAGCTT against Chrnb3, for which the z-score was inactive: -0.251. In the case of “GCCCAUCUACUCACGGUACTT against 5033413H12Rik”, the z-score was inactive: 0.0506. For “GGCUGUGGACUUUUGUAAUTT against 3110002H16Rik”, the z-score was inactive: 0.704. Regarding GGUCAUAUGGAGAACGAACTT against Snn, the z-score is inactive: -0.352.

For the origin of these results see PubChem BioAssay AID1347423 (Functional Genomics Laboratory (NCATS/FGL), 2020).
